{"source": "the supplement of paper PMC8728848", "binders": {"B1": {"name": "Epa2 (Candida glabrata) (protein)", "chain": "MGSSHHHHHHSSGLVPRGSHMASSKDPTSFPMGCSPQVLKTQPGLAVKLYSYGHPVPGCAYNTYQYPDFPRSGYKKERKLADITGVNGRIDIDLKPNDPCRVLSGNLPSNYNYQNTLTYTNFTMILYGYFQPKVTGYHTFNLEADDLLFMNLGAGNAFDCCRAESTLDNFGNYQSYSIWGTDKATADLTVFLVSGIYYPIRLFYVNRDNNAVLDFSFSTEFNKEIIHDFTSYFFSASDEEQCPGNI"}}, "assay_in_all_cases": "glycan array binding signal (z-score within array); higher = stronger binding", "conditions_in_all_cases": "glycan notation: IUPAC condensed, linker removed", "key": {"[1]": {"molecular_target": "Fuc(a1-2)Gal(b1-4)GlcNAc(b1-3)Gal(b1-4)GlcNAc(b1-2)Man(a1-3)[Fuc(a1-2)Gal(b1-4)GlcNAc(b1-3)Gal(b1-4)GlcNAc(b1-2)Man(a1-6)]Man(b1-4)GlcNAc(b1-4)GlcNAc", "how_it_was_run": "(§1)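 The Consortium for Functional Glycomics database supplied 3228 glycan arrays, of which those lacking an available protein sequence were dropped. The binding signal, a within-array Z-score, was averaged across arrays of the same protein sequence and across linkers. Negative scores can be read as non-binding.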"}, "[2]": {"molecular_target": "Fuc(a1-2)Gal(b1-4)GlcNAc(b1-3)Gal(b1-4)GlcNAc(b1-3)Gal(b1-4)GlcNAc", "how_it_was_run": "as §1"}, "[3]": {"molecular_target": "Fuc(a1-2)Gal(b1-4)GlcNAc(b1-3)GalNAc", "how_it_was_run": "as §1"}, "[4]": {"molecular_target": "Fuc(a1-2)Gal(b1-4)GlcNAc(b1-3)[Fuc(a1-2)Gal(b1-4)GlcNAc(b1-6)]GalNAc", "how_it_was_run": "as §1"}, "[5]": {"molecular_target": "Fuc(a1-2)Gal(b1-4)GlcNAc(b1-3)[Fuc(a1-3)[Gal(b1-4)]GlcNAc(b1-6)]Gal(b1-4)Glc", "how_it_was_run": "as §1"}, "[6]": {"molecular_target": "Fuc(a1-2)Gal(b1-4)GlcNAc(b1-6)GalNAc", "how_it_was_run": "as §1"}, "[7]": {"molecular_target": "Fuc(a1-2)Gal(b1-4)GlcNAc6S", "how_it_was_run": "as §1"}, "[8]": {"molecular_target": "Fuc(a1-2)Gal(b1-4)[Fuc(a1-3)]GlcNAc", "how_it_was_run": "as §1"}, "[9]": {"molecular_target": "Fuc(a1-2)Gal(b1-4)[Fuc(a1-3)]GlcNAc(b1-2)Man(a1-3)[Fuc(a1-2)Gal(b1-4)[Fuc(a1-3)]GlcNAc(b1-2)Man(a1-6)]Man(b1-4)GlcNAc(b1-4)[Fuc(a1-6)]GlcNAc", "how_it_was_run": "as §1"}, "[10]": {"molecular_target": "Fuc(a1-2)Gal(b1-4)[Fuc(a1-3)]GlcNAc(b1-2)[Fuc(a1-2)Gal(b1-4)[Fuc(a1-3)]GlcNAc(b1-4)]Man(a1-3)[Fuc(a1-2)Gal(b1-4)[Fuc(a1-3)]GlcNAc(b1-2)Man(a1-6)]Man(b1-4)GlcNAc(b1-4)GlcNAc", "how_it_was_run": "as §1"}, "[11]": {"molecular_target": "Fuc(a1-2)Gal(b1-4)[Fuc(a1-3)]GlcNAc(b1-3)Gal(b1-4)[Fuc(a1-3)]GlcNAc", "how_it_was_run": "as §1"}, "[12]": {"molecular_target": "Fuc(a1-2)Gal(b1-4)[Fuc(a1-3)]GlcNAc(b1-3)Gal(b1-4)[Fuc(a1-3)]GlcNAc(b1-3)Gal(b1-4)[Fuc(a1-3)]GlcNAc", "how_it_was_run": "as §1"}, "[13]": {"molecular_target": "Fuc(a1-2)Gal(b1-4)[Fuc(a1-3)]GlcNAc(b1-3)GalNAc", "how_it_was_run": "as §1"}, "[14]": {"molecular_target": "Fuc(a1-2)Gal(b1-4)[Fuc(a1-3)]GlcNAc(b1-3)[Neu5Ac(a2-6)Gal(b1-4)GlcNAc(b1-6)]Gal(b1-4)Glc", "how_it_was_run": "as §1"}, "[15]": {"molecular_target": "Fuc(a1-2)Gal3S(b1-4)GlcNAc", "how_it_was_run": "as §1"}, "[16]": {"molecular_target": "Fuc(a1-2)Gal6S(b1-3)GlcNAc", "how_it_was_run": "as §1"}, "[17]": {"molecular_target": "Fuc(a1-2)Gal6S(b1-3)GlcNAc6S", "how_it_was_run": "as §1"}, "[18]": {"molecular_target": "Fuc(a1-2)Gal6S(b1-4)Glc", "how_it_was_run": "as §1"}, "[19]": {"molecular_target": "Fuc(a1-2)Gal6S(b1-4)Glc6S", "how_it_was_run": "as §1"}, "[20]": {"molecular_target": "Fuc(a1-2)[Gal(a1-3)]Gal", "how_it_was_run": "as §1"}, "[21]": {"molecular_target": "Fuc(a1-2)[Gal(a1-3)]Gal(b1-3)GalNAc", "how_it_was_run": "as §1"}, "[22]": {"molecular_target": "Fuc(a1-2)[Gal(a1-3)]Gal(b1-3)GalNAc(b1-3)Gal(a1-4)Gal(b1-4)Glc", "how_it_was_run": "as §1"}, "[23]": {"molecular_target": "Fuc(a1-2)[Gal(a1-3)]Gal(b1-3)GlcNAc", "how_it_was_run": "as §1"}, "[24]": {"molecular_target": "Fuc(a1-2)[Gal(a1-3)]Gal(b1-3)GlcNAc(b1-2)Man(a1-3)[Fuc(a1-2)[Gal(a1-3)]Gal(b1-3)GlcNAc(b1-2)Man(a1-6)]Man(b1-4)GlcNAc(b1-4)GlcNAc", "how_it_was_run": "as §1"}, "[25]": {"molecular_target": "Fuc(a1-2)[Gal(a1-3)]Gal(b1-3)GlcNAc(b1-2)Man(a1-3)[Fuc(a1-2)[Gal(a1-3)]Gal(b1-3)GlcNAc(b1-2)Man(a1-6)]Man(b1-4)GlcNAc(b1-4)[Fuc(a1-6)]GlcNAc", "how_it_was_run": "as §1"}, "[26]": {"molecular_target": "Fuc(a1-2)[Gal(a1-3)]Gal(b1-3)GlcNAc(b1-3)GalNAc", "how_it_was_run": "as §1"}, "[27]": {"molecular_target": "Fuc(a1-2)[Gal(a1-3)]Gal(b1-3)GlcNAc(b1-6)GalNAc", "how_it_was_run": "as §1"}, "[28]": {"molecular_target": "Fuc(a1-2)[Gal(a1-3)]Gal(b1-4)Glc", "how_it_was_run": "as §1"}, "[29]": {"molecular_target": "Fuc(a1-2)[Gal(a1-3)]Gal(b1-4)GlcNAc", "how_it_was_run": "as §1"}, "[30]": {"molecular_target": "Fuc(a1-2)[Gal(a1-3)]Gal(b1-4)GlcNAc(b1-2)Man", "how_it_was_run": "as §1"}}, "note": "The other results are listed elsewhere or left out.", "data": [{"binder": "B1", "values": [{"measurement": "glycan array binding signal (z-score)", "setting": "[1]", "value": 0.042}, {"measurement": "glycan array binding signal (z-score)", "setting": "[2]", "value": -0.48}, {"measurement": "glycan array binding signal (z-score)", "setting": "[3]", "value": 0.309}, {"measurement": "glycan array binding signal (z-score)", "setting": "[4]", "value": 0.094}, {"measurement": "glycan array binding signal (z-score)", "setting": "[5]", "value": -0.076}, {"measurement": "glycan array binding signal (z-score)", "setting": "[6]", "value": 2.02}, {"measurement": "glycan array binding signal (z-score)", "setting": "[7]", "value": -0.856}, {"measurement": "glycan array binding signal (z-score)", "setting": "[8]", "value": -0.941}, {"measurement": "glycan array binding signal (z-score)", "setting": "[9]", "value": 0.021}, {"measurement": "glycan array binding signal (z-score)", "setting": "[10]", "value": 0.204}, {"measurement": "glycan array binding signal (z-score)", "setting": "[11]", "value": -0.605}, {"measurement": "glycan array binding signal (z-score)", "setting": "[12]", "value": -0.648}, {"measurement": "glycan array binding signal (z-score)", "setting": "[13]", "value": 4.06}, {"measurement": "glycan array binding signal (z-score)", "setting": "[14]", "value": 0.379}, {"measurement": "glycan array binding signal (z-score)", "setting": "[15]", "value": -0.52}, {"measurement": "glycan array binding signal (z-score)", "setting": "[16]", "value": -0.448}, {"measurement": "glycan array binding signal (z-score)", "setting": "[17]", "value": 1.81}, {"measurement": "glycan array binding signal (z-score)", "setting": "[18]", "value": -0.517}, {"measurement": "glycan array binding signal (z-score)", "setting": "[19]", "value": 1.03}, {"measurement": "glycan array binding signal (z-score)", "setting": "[20]", "value": 0.088}, {"measurement": "glycan array binding signal (z-score)", "setting": "[21]", "value": -0.272}, {"measurement": "glycan array binding signal (z-score)", "setting": "[22]", "value": -0.435}, {"measurement": "glycan array binding signal (z-score)", "setting": "[23]", "value": -0.553}, {"measurement": "glycan array binding signal (z-score)", "setting": "[24]", "value": -0.311}, {"measurement": "glycan array binding signal (z-score)", "setting": "[25]", "value": -0.346}, {"measurement": "glycan array binding signal (z-score)", "setting": "[26]", "value": 0.104}, {"measurement": "glycan array binding signal (z-score)", "setting": "[27]", "value": -0.162}, {"measurement": "glycan array binding signal (z-score)", "setting": "[28]", "value": -0.664}, {"measurement": "glycan array binding signal (z-score)", "setting": "[29]", "value": -0.1}, {"measurement": "glycan array binding signal (z-score)", "setting": "[30]", "value": -0.03}]}]}
